In article PMC7819943, “Rice protein-binding microarrays: a tool to detect cis-acting elements near promoter regions in rice”:
This is one part of the list.

Biological target: T1, OsSMF1 (Oryza sativa, UniProt Q6ZLB0 1-436)
T1 sequence: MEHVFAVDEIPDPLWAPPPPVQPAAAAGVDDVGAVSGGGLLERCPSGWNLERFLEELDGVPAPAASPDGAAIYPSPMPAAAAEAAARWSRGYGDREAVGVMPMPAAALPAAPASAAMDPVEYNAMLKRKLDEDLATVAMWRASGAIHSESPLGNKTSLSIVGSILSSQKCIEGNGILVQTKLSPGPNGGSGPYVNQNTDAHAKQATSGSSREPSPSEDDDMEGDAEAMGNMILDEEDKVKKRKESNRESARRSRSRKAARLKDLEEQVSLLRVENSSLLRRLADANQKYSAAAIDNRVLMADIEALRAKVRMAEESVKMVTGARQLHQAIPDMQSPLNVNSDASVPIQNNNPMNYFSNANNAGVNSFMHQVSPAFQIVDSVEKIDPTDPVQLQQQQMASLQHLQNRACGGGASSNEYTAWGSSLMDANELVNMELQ
Assay: protein-binding microarray (RPBM); PBS, 2% BSA, 51.3 ng/ul salmon testes DNA, 50 uM zinc acetate, 200 nM TF, 25 C, 1 h; high values mean tight binding
Conditions: protein: recombinant; tags: N-terminal polyhistidine and DsRed monomer fusion (pET32a); chain copies: 2; label: CyDye5-dUTP incorporated in the synthesized complementary strand; 3' TTTTT single-stranded linker to array surface; dsDNA, one strand shown
Summary of the method: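 Binding signal here means per-feature fluorescence intensity in arbitrary units. The values were read on an Axon 4000B scanner after a custom Agilent array, double-stranded by primer extension with Cy5-dUTP, was incubated with 200 nM protein at 25 °C for 1 h in PBS with 2% BSA, salmon testes DNA and 50 µM zinc acetate, then washed. The proteins were transcription factors with an N-terminal polyhistidine tag and DsRed, expressed in E. coli BL21-CodonPlus and purified on Ni–NTA.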

**Q.** “GTGGCCACTTGCATCAGCCGGCCATGAGTGGAGGGGTAAGCGGAGTCACCTAGTGCAG” was tested. Which binding signal did it give?
**A.** 49700 fluorescence intensity (a.u.)

**Q.** Which binding signal does the source give for “GATCAGTGCTTGGACGCATCAATAATAAGTGACAATTCTACGGAGTCACCTAGTGCAG” here?
**A.** 4960 fluorescence intensity (a.u.)

**Q.** How did the binding signal turn out when “TCGTCAAGCTGCTCAGCGTCCGCCGCGTCAGCTCGTTCCACGGAGTCACCTAGTGCAG” was run?
**A.** 12500 fluorescence intensity (a.u.)

**Q.** “GGCGCCGGCGGCCGCCACGCGTCCCGCGTCGCGCTGTCCACGGAGTCACCTAGTGCAG” was tested. Which binding signal did it give?
**A.** 4190 fluorescence intensity (a.u.)

**Q.** For “TTCTACTATGTCATTCTAGTACTATATAAAACTACTATGCCGGAGTCACCTAGTGCAG”, which binding signal is on record?
**A.** 3690 fluorescence intensity (a.u.)

**Q.** For “GGAGAATAACACATGCCAACGTGGTTGAATGTGCAGAGGTCGGAGTCACCTAGTGCAG”, which binding signal is on record?
**A.** 5980 fluorescence intensity (a.u.)

**Q.** With “GGAAGTTCAGAAAACGTTTCATATGCATGCCATTATCTCTCGGAGTCACCTAGTGCAG” as the sequence, how does the binding signal read?
**A.** 12600 fluorescence intensity (a.u.)

**Q.** “TTTAGGGGATAGGTTAGTCCACTGCACAAGCAACGTGTCGCGGAGTCACCTAGTGCAG” was tested. Which binding signal did it give?
**A.** 3530 fluorescence intensity (a.u.)

**Q.** With “GGAAAGCCGAGCACCGAACCGAGTCACCGACTCGCCTCGCCGGAGTCACCTAGTGCAG” as the sequence, how does the binding signal read?
**A.** 3230 fluorescence intensity (a.u.)

**Q.** Which binding signal does the source give for “CGTCGCATTGCCACCAGCGCATGACGCCATGTCGTCGCATCGGAGTCACCTAGTGCAG” here?
**A.** 7930 fluorescence intensity (a.u.)

**Q.** For “CTAATTTAGAACTGGATGTGACACATTCTATTACTATCCCCGGAGTCACCTAGTGCAG”, which binding signal is on record?
**A.** 4800 fluorescence intensity (a.u.)

**Q.** With “TTTCTTCTGTCAAATGACAGGGACTATAGTTATCTATCCTCGGAGTCACCTAGTGCAG” as the sequence, how does the binding signal read?
**A.** 28300 fluorescence intensity (a.u.)

**Q.** For “AAGCTGTTTCACAAGGCAGTTTTGCATACGTGGCGGGCTGCGGAGTCACCTAGTGCAG”, which binding signal is on record?
**A.** 21500 fluorescence intensity (a.u.)

**Q.** Which binding signal does the source give for “CCTCGCCGTCTGGCCCGCGGAGGCGTGGCCGCCTTCCACGCGGAGTCACCTAGTGCAG” here?
**A.** 7770 fluorescence intensity (a.u.)

**Q.** For “ACTATATATATACACTACGGTTGACAAAGACATCCCAACACGGAGTCACCTAGTGCAG”, which binding signal is on record?
**A.** 3240 fluorescence intensity (a.u.)

**Q.** With “CGGCGGACAGGCGAGGCGGCGCGGCGCGGCGCGGGCGGGGCGGAGTCACCTAGTGCAG” as the sequence, how does the binding signal read?
**A.** 4780 fluorescence intensity (a.u.)

**Q.** How did the binding signal turn out when “GGTGTGTGTGTGTGTGGCATGGCAGGGCATGGATCCCTCCCGGAGTCACCTAGTGCAG” was run?
**A.** 5270 fluorescence intensity (a.u.)

**Q.** With “CCTTTTCAATGTTCTTGTCATCACTGCTCGTGTCACCCGTCGGAGTCACCTAGTGCAG” as the sequence, how does the binding signal read?
**A.** 5650 fluorescence intensity (a.u.)

**Q.** For “GGCAGCCCGACCTACGCGTACCCACGTATTCCCCACCTTACGGAGTCACCTAGTGCAG”, which binding signal is on record?
**A.** 7360 fluorescence intensity (a.u.)

**Q.** “TTGTTTGTTTTCCGTGAACATACGGACATACCCTTTGACACGGAGTCACCTAGTGCAG” was tested. Which binding signal did it give?
**A.** 3970 fluorescence intensity (a.u.)

**Q.** How did the binding signal turn out when “ATACATCACTTTATCAAATCCTGATGTAATCATTCTTCACCGGAGTCACCTAGTGCAG” was run?
**A.** 4000 fluorescence intensity (a.u.)

**Q.** Which binding signal does the source give for “GATACCGGTTGGGTGACGTCGTTTAATGAAGATGAACGGTCGGAGTCACCTAGTGCAG” here?
**A.** 4460 fluorescence intensity (a.u.)

**Q.** With “CATGCCATATATGTACATTATATCTACAATGTTCCATATGCGGAGTCACCTAGTGCAG” as the sequence, how does the binding signal read?
**A.** 3620 fluorescence intensity (a.u.)
